Test results published in patent US12471620B2, “Use of isothiocyanate in smokeless tobacco products” (Gamot Global Pte. Ltd., priority 2019, dated 2025).
Some results were stated once for a whole list of compounds, not compound by compound.

Tested on: A549 cells
Assay: CellEvent Caspase 3/7 green detection assay of apoptosis, brightfield and fluorescent imaging
Assay type: cell-based, human
Settings: after 4 days of treatment, single compound
Procedure: A549 cells were plated into 48 well culture plates at a density of 3.0×10^4 cells/cm^2. Cells were dissociated with 0.05% trypsin EDTA following a 5-minute incubation at 37° C., neutralized in a 1:1 ratio of standard medium and counted using a hemocytometer prior to plating. All wells were settled overnight prior to addition of one of the following treatment compounds: AITC, PEITC, Thymoquinone, or Resveratrol. All treatments were performed within 24 hours following initial plating.
Treatment of the A549 cells occurred at the following time points and concentrations: AITC—25 μM, 50 μM and 100 μM for 24, 48 and 96 hours. PEITC—25 μM, 50 μM, 100 μM and 200 μM for 24, 48 and 96 hours. TQ—25 μM, 50 μM, 10 0 μM and 200 μM for 24, 48 and 96 hours. Resveratrol—25 μM, 50 μM and 100 μM for 48 and 96 hours. DMSO was used to dissolve each compound, and cells treated with DMSO without any of tested compounds served as a control. Treated cells received daily treatments using the same concentrations until the last time point of the experiment.
Apoptosis was detected using the CellEvent Caspase 3/7 green detection kit/assay from Thermofisher Scientific. Cells were incubated with diluted assay reagent for 30 minutes at 37° C. prior to analysis, and imaged by a brightfield and a fluorescent microscopes. […]

Row | SMILES | apoptosis rate
1 | Oc1ccc(C=Cc2cc(O)cc(O)c2)cc1 [Resveratrol] | up to 95%
2 | CC1=CC(=O)C(C(C)C)=CC1=O [Thymoquinone] | up to 95%
